{
  "source": "the supplement of paper PMC7024190",
  "note": "Structures can show the parent of a compound that is named as a salt. The list shows a part of the results. This data set is noisy: repeats of one test often differ as much as different tests do.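 Human embryonic kidney cells were transiently transfected with a plasmid bearing a Renilla luciferase gene under the HSV-TK promoter. This first-round screen tests roughly ten thousand compounds for ones that increase reporter output.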",
  "data": [
    {"test_system": "HEK 293FT", "assay": "log relative Renilla luciferase luminescence (reporter expression vs reference, reference not stated) (log (base not stated)); higher = higher recombinant reporter expression", "details": "10 µM; time after transfection 48 h", "values": [
      {"compound": "Oc1ccc2c3c1O[C@H]1c4[nH]c5c(c4C[C@@]4(O)[C@@H](C2)N(CC2CC2)CC[C@]314)C[C@@]1(O)[C@H]2Cc3ccc(O)c4c3[C@@]1(CCN2CC1CC1)[C@H]5O4", "note": "[nor-Binaltorphimine dihydrochloride]", "log": -0.00758},
      {"compound": "Cc1nnc2ccc(-c3cccc(C(F)(F)F)c3)nn12", "log": 0.0174},
      {"compound": "O=C1NC(=O)c2c1c1c3ccccc3n3c1c1c2c2ccccc2n1[C@H]1CC[C@@H]3O1", "log": -0.323},
      {"compound": "C=CCN1CC[C@]2(C)c3cc(O)ccc3C[C@H]1C2C", "note": "(single isomer, unassigned; (+))", "log": -0.0164},
      {"compound": "C[C@H](N)Cn1ccc2cc(F)c(Cl)cc21", "note": "[Ro 60-0175 fumarate]", "log": 0.0438},
      {"compound": "CN1C[C@H](C(=O)N[C@]2(C)O[C@@]3(O)[C@@H]4CCCN4C(=O)[C@H](Cc4ccccc4)N3C2=O)C[C@@H]2c3cccc4[nH]cc(c34)C[C@H]21", "note": "[Dihydroergotamine mesylate]", "log": 0.151},
      {"compound": "O=c1ccc2[nH]cc(C3=CCNCC3)c2[nH]1", "log": -0.0109},
      {"compound": "Fc1ccc(C(OCCN2CCN(C/C=C/c3ccccc3)CC2)c2ccc(F)cc2)cc1", "log": 0.146},
      {"compound": "CC(=O)N1CC[N+](C)(C)CC1", "note": "[4-Acetyl-1,1-dimethylpiperazinium iodide]", "log": 0.117},
      {"compound": "O=C1NCN(c2ccccc2)C12CCN(CC1COc3ccccc3O1)CC2", "note": "(stereo not drawn) [Spiroxatrine]", "log": 0.0389},
      {"compound": "O=Cc1cn(Cc2ccc(Cl)cc2)c2ccccc12", "note": "[Oncrasin 1]", "log": 0.0297},
      {"compound": "Cn1c2c(c3ccccc31)CCNCC2", "log": 0.0467},
      {"compound": "c1ccc2nc(N3CCNCC3)ccc2c1", "note": "[Quipazine dimaleate]", "log": 0.0692},
      {"compound": "COc1ccc(CCN2CCC(Nc3nc4ccccc4n3Cc3ccc(F)cc3)CC2)cc1", "note": "[Astemizole]", "log": -0.0282},
      {"compound": "O=C(O)c1nn(Cc2ccc(Cl)cc2Cl)c2ccccc12", "note": "[Lonidamine]", "log": 0.0127},
      {"compound": "NP(N)(=O)NC(=O)c1ccc(F)cc1", "note": "[Flurofamide]", "log": 0.128},
      {"compound": "Cc1[nH]c2ccc(Cl)cc2c1C1=CCNCC1", "log": -0.00193},
      {"compound": "Oc1ccc2c3c1O[C@H]1c4[nH]c5ccccc5c4C[C@@]4(O)[C@@H](C2)N(CC2CC2)CC[C@]314", "note": "[Naltrindole hydrochloride]", "log": -0.0186},
      {"compound": "COc1ccc(-n2nc(C(F)(F)F)cc2-c2ccc(Cl)cc2)cc1", "log": 0.207},
      {"compound": "CCOC(=O)c1ncc2[nH]c3ccc(OCc4ccccc4)cc3c2c1COC", "log": -0.0528},
      {"compound": "BrC1C(Br)C(Br)C(Br)C(Br)C1Br", "note": "(stereo not drawn) [1,2,3,4,5,6-Hexabromocyclohexane]", "log": -0.0455},
      {"compound": "Cc1ccc(C[N+](C)(C)C)o1", "note": "[5-Methylfurmethiodide]", "log": 0.0168},
      {"compound": "CN(C)CCN(C)CCc1ccc(Cl)c(Cl)c1", "note": "[BD 1047 dihydrobromide]", "log": 0.0906},
      {"compound": "O=C1CCCN1CC#CCN1CCCC1", "note": "[Oxotremorine sesquifumarate]", "log": 0.16},
      {"compound": "O=C(O)Cc1cccnc1C(=O)O", "note": "[Homoquinolinic acid]", "log": -0.0416},
      {"compound": "CN1C2CCC1CC(OC(c1ccccc1)c1ccc(Cl)cc1)C2", "note": "(stereo not drawn)", "log": 0.00426},
      {"compound": "C[C@@H](N)Cc1cnc[nH]1", "note": "[(R)-(-)- α-Methylhistamine dihydrobromide]", "log": "-8.27e-06"},
      {"compound": "c1ccc(C2CC2)c(OCC2=NCCN2)c1", "note": "[Cirazoline hydrochloride]", "log": -0.0956},
      {"compound": "O=C(CCCN1CCC2(CC1)C(=O)NCN2c1ccccc1)c1ccc(F)cc1", "note": "[Spiperone hydrochloride]", "log": -0.0476},
      {"compound": "N[C@@H]1C[C@H]1c1ccccc1", "note": "[Tranylcypromine hydrochloride]", "log": -0.0949},
      {"compound": "CCCN(CCC)[C@@H]1CCc2c(OC)cccc2[C@@H]1C", "note": "[(+)-UH 232 maleate]", "log": 0.0199},
      {"compound": "NCC(O)c1ccc(O)cc1", "note": "(stereo not drawn) [Octopamine hydrochloride]", "log": 0.0863},
      {"compound": "CCN(CC)CCO[C@H]1CC[C@@]2(C)C(=CC[C@@H]3[C@@H]2CC[C@]2(C)C(=O)CC[C@@H]32)C1", "log": 0.0669},
      {"compound": "Clc1ccc(C2=CCCC3CCC2N3)cn1", "note": "(stereo not drawn) [UB 165 fumarate]", "log": -0.00324},
      {"compound": "CCCCC1(C2CCCC2)Cc2cc(OCCCC(=O)O)c(Cl)c(Cl)c2C1=O", "note": "(stereo not drawn)", "log": -0.024},
      {"compound": "CCCN(CCC)C1CCc2ccc(O)cc2C1", "note": "(stereo not drawn) [7-Hydroxy-DPAT hydrobromide]", "log": -0.0464},
      {"compound": "C=C(C)CN1CC[C@@]23c4c5ccc(O)c4O[C@H]2c2[nH]c4ccccc4c2C[C@]3(O)C1C5", "note": "[SDM25N hydrochloride]", "log": 0.104},
      {"compound": "O=C1CSC(c2ccccc2Cl)c2cc(Cl)ccc2N1", "note": "(stereo not drawn)", "log": 0.143}
    ]}
  ]
}
